Reference: PubChem BioAssay AID192 (DTP/NCI, 2004)
The list shows only some results of the screen, not a fair sample: it is rich in T/C values a quarter to a half above the control, in often repeated tests (any T/C) and in doses without a T/C. Further doses and runs are listed elsewhere. T/C gives the treated animals as a percentage of the vehicle group. Some doses have a count of surviving animals in place of a T/C: the source files T/C as zero there, which appears to mark a toxic dose or a test without result, not a measured value. Some doses without a T/C left all or most animals alive at the check, yet need not have been tolerated: survival well below the control is almost never listed, so the zero probably covers shortened survival too. Counts of survivors are from the toxicity check (mostly the fifth day) where no day follows; animals may have died later. Schedules are NCI's codes, read here as Q, the interval in days (D) or hours (H), X, the number of doses. For survival time, this PubChem deposit counts one and a half times the control or more as active, and values a quarter to a half above the control carry no call in these data; other NCI protocols may use other cut-offs. Some entries hold several experiments; the values are given in rising order. Some T/C values are followed by the survivors on the day toxicity was checked, most often the fifth; without a count, all were alive then.

Test system: BDF1 mice, B16 melanoma ip, median survival T/C
Assay: NCI In Vivo Anticancer Drug Screen. Data for tumor model B16 Melanoma (intraperitoneal) in B6D2F1 (BDF1) mice
Conditions: T/C endpoint: median survival time, higher T/C = longer survival
Method in brief: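 Antitumor activity is assessed in mice bearing a transplanted tumor, with survival or tumor size compared against vehicle-dosed controls and expressed as T/C.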

[1] = dose: 200.0 mg/kg/injection, schedule: Q01DX009 (ip), vehicle: saline with Tween-80
[2] = dose: 6.25 mg/kg/injection, schedule: Q01DX009 (ip), vehicle: Klucel (hydroxypropylcellulose) (HPC)
[3] = dose: 12.5 mg/kg/injection, schedule: Q01DX009 (ip), vehicle: saline with Tween-80
[4] = dose: 50.0 mg/kg/injection, schedule: Q01DX009 (ip), vehicle: saline with Tween-80
[5] = dose: 100.0 mg/kg/injection, schedule: Q01DX009 (ip), vehicle: saline with Tween-80
[6] = dose: 100.0 mg/kg/injection, schedule: Q01DX009 (ip), vehicle: saline
[7] = dose: 200.0 mg/kg/injection, schedule: Q01DX009 (ip), vehicle: saline
[8] = dose: 400.0 mg/kg/injection, schedule: Q01DX009 (ip), vehicle: saline
[9] = dose: 25.0 mg/kg/injection, schedule: Q01DX009 (ip), vehicle: saline with Tween-80

`COc1ccc(Br)cc1` was tested, and the survivor count [1] was 10 of 10.
In the case of `CC(NC1=NCCO1)c1cccc2ccccc12` (stereo unspecified), the T/C (dose: 12.5 mg/kg/injection, schedule: Q04DX003 (ip), vehicle: saline with Tween-80) is reported as 143 % of control and the T/C (dose: 25.0 mg/kg/injection, schedule: Q04DX003 (ip), vehicle: saline with Tween-80) is reported as 143 % of control.
In the case of `CCCCCCCCCCCCCCCCCCNC(=O)Nc1ccc(C)cc1`, the survivor count (dose: 85.0 mg/kg/injection, schedule: Q01DX009 (ip), vehicle: saline with Tween-80) is reported as 10 of 10, the survivor count (dose: 170.0 mg/kg/injection, schedule: Q01DX009 (ip), vehicle: saline with Tween-80) is reported as 9 of 10 and the survivor count (dose: 340.0 mg/kg/injection, schedule: Q01DX009 (ip), vehicle: saline with Tween-80) is reported as 10 of 10.
For `CC(=O)C1=CC(=O)NC(=O)C1C(=O)CC(C)C` (stereo unspecified), the survivor count (dose: 1.56 mg/kg/injection, schedule: Q01DX009 (ip), vehicle: Klucel (hydroxypropylcellulose) (HPC)) was 10 of 10 and the survivor count [2] was 10 of 10.
For `CC1(C)OC2C(COC(=O)c3ccc([N+](=O)[O-])cc3)OC(NC(=O)N(CCCl)N=O)C2O1` (stereo unspecified), the T/C (dose: 6.25 mg/kg/injection, schedule: Q01DX009 (ip), vehicle: saline with Tween-80) was 137 % of control, the T/C [3] was 141 % of control and the T/C [4] was 134 % of control. The T/C [5] was 147 % of control and the survivor count [5] was 10 of 10.
With `COC(=O)C1=CCCN(C)C1` the survivor count [6] was 3 of 10, the survivor count [7] was 0 of 10 and the survivor count [8] was 0 of 10.
For `CCOC(=O)C(CC)c1ccccc1` (stereo unspecified), the survivor count [1] was 8 of 10.
`O=[N+]([O-])c1cc(F)ccc1O` was tested, and the survivor count [4] was 5 of 6 and the survivor count [5] was 3 of 6.
`COc1ccc([I+]c2cccc(Cl)c2)cc1Cl` was tested, and the survivor count [4] was 8 of 10, the survivor count [5] was 9 of 10 and the survivor count [1] was 0 of 10.
For `NCC(=O)NC(CCCN=C(N)N)C(=O)O` (stereo unspecified), the survivor count [8] was 10 of 10.
In the case of `COc1cccc2c1C(=O)c1c(O)c3c(c(O)c1C2=O)C[C@@](O)(C(C)O)C[C@@H]3OC1CC(N2CCOCC2C#N)C(O)C(C)O1` (stereo partly specified), the survivor count (dose: 2.5 mg/kg/injection, schedule: Q01DX001 (ip), vehicle: water) is reported as 0 of 10, the survivor count (dose: 5.0 mg/kg/injection, schedule: Q01DX001 (ip), vehicle: water) is reported as 0 of 10 and the survivor count (dose: 10.0 mg/kg/injection, schedule: Q01DX001 (ip), vehicle: water) is reported as 0 of 10. The survivor count (dose: 20.0 mg/kg/injection, schedule: Q01DX001 (ip), vehicle: water) was 0 of 10, the survivor count (dose: 40.0 mg/kg/injection, schedule: Q01DX001 (ip), vehicle: water) was 0 of 10 and the T/C (dose: 18.75 micrograms/kg/injection, schedule: Q01DX001 (ip), vehicle: water) was 125 and 127 % of control. The T/C (dose: 37.5 micrograms/kg/injection, schedule: Q01DX001 (ip), vehicle: water) was 140 % of control, the T/C (dose: 75.0 micrograms/kg/injection, schedule: Q01DX001 (ip), vehicle: water) was 128 [9 of 10 alive] and 132 % of control and the survivor count (dose: 150.0 micrograms/kg/injection, schedule: Q01DX001 (ip), vehicle: water) was 3 of 10.
`O=S1(=O)CC(Cl)C(Cl)C1` (stereo unspecified) was tested, and the survivor count [2] was 10 of 10 and the survivor count (dose: 25.0 mg/kg/injection, schedule: Q01DX009 (ip), vehicle: Klucel (hydroxypropylcellulose) (HPC)) was 7 of 10.
For `C[CH2][Pb]([CH2]C)([CH2]C)[O]C(=O)COc1ccccc1`, the survivor count (dose: 6.0 mg/kg/injection, schedule: Q01DX009 (ip), vehicle: saline with Tween-80) was 9 of 10, the survivor count [3] was 3 of 10 and the survivor count [9] was 0 of 10.
With `COc1cccc2c1C(=O)c1c(O)c3c(c(O)c1C2=O)C[C@@](O)(/C(C)=N\O)C[C@@H]3OC1CC(N)C(O)C(C)O1` (stereo partly specified) the T/C (dose: 6.25 mg/kg/injection, schedule: Q01DX009 (ip), vehicle: water) was 149 % of control, the T/C (dose: 25.0 mg/kg/injection, schedule: Q01DX009 (ip), vehicle: water) was 149 % of control and the survivor count (dose: 50.0 mg/kg/injection, schedule: Q01DX009 (ip), vehicle: water) was 6 of 10. For the same compound, the survivor count (dose: 100.0 mg/kg/injection, schedule: Q01DX001 (ip), vehicle: water) was 5 of 10 and the survivor count (dose: 200.0 mg/kg/injection, schedule: Q01DX001 (ip), vehicle: water) was 0 of 10.
In the case of `CNC1=C(N2CC2C)C(=O)C(NC)=C(N2CC2C)C1=O` (stereo unspecified), the T/C (dose: 2.5 mg/kg/injection, schedule: Q01DX009 (ip), vehicle: saline) is reported as 126 % of control, the T/C (dose: 5.0 mg/kg/injection, schedule: Q01DX009 (ip), vehicle: saline) is reported as 148 % of control and the survivor count (dose: 10.0 mg/kg/injection, schedule: Q01DX009 (ip), vehicle: saline) is reported as 6 of 6.
With `COc1cc([C@@H]2c3cc4c(cc3[C@H](O)[C@H]3COC(=O)[C@H]23)OCO4)cc(OC)c1OC` the survivor count (dose: 16.0 mg/kg/injection, schedule: Q01DX009 (ip), vehicle: saline) was 10 of 10.
`CCCCCc1cc(/C=C2/N=C(c3ccc[nH]3)C=C2OC)[nH]c1C` was tested, and the survivor count (dose: 8.0 mg/kg/injection, schedule: Q01DX009 (ip), vehicle: saline with Tween-80) was 10 of 10.
`c1ccc2c[n+](CCCCCCCCCC[n+]3ccc4ccccc4c3)ccc2c1` was tested, and the survivor count (dose: 20.0 mg/kg/injection, schedule: Q01DX009 (ip), vehicle: saline) was 6 of 10, the survivor count (dose: 20.0 mg/kg/injection, schedule: Q04DX003 (ip), vehicle: saline) was 10 of 10 and the survivor count (dose: 40.0 mg/kg/injection, schedule: Q04DX003 (ip), vehicle: saline) was 8 of 10.
In the case of `CC(=N\O)/C(C)=N/O.CC(=N\O)/C(C)=N/O.[Ni]`, the survivor count (dose: 12.0 mg/kg/injection, schedule: Q01DX009 (ip), vehicle: saline with Tween-80) is reported as 10 of 10, the survivor count [9] is reported as 10 of 10 and the survivor count [4] is reported as 8 of 10. The survivor count [5] was 3 of 10.
`O=C1[O][Hg][c]2cccc3cccc1c23` was tested, and the T/C (dose: 2.5 mg/kg/injection, schedule: Q04DX003 (ip), vehicle: saline with Tween-80) was 147 % of control, the survivor count (dose: 3.75 mg/kg/injection, schedule: Q04DX003 (ip), vehicle: saline with Tween-80) was 10 of 10 and the T/C (dose: 5.0 mg/kg/injection, schedule: Q04DX003 (ip), vehicle: saline with Tween-80) was 144 % of control. For the same compound, the survivor count (dose: 10.0 mg/kg/injection, schedule: Q01DX009 (ip), vehicle: saline with Tween-80) was 10 of 10.
In the case of `CC(C(=O)N1c2ccccc2Sc2ccccc21)[N+]1(C)CCCC1` (stereo unspecified), the survivor count [6] is reported as 0 of 10, the survivor count [7] is reported as 0 of 10 and the survivor count [8] is reported as 0 of 10.
